Results: PubChem BioAssay AID1688 (National Center for Advancing Translational Sciences (NCATS), 2009)
About 2,400 (1.1%) of roughly 220,000 compounds were called active. Inconclusive results, whose numbers are uncertain, are shown with a selection of clear calls. The call rests on the fitted dose curve; in most records, active means well fitted inhibition curve with a large enough effect; inconclusive means small, poorly fitted or top-dose-only effect, or effect the other way; inactive means no such curve, though single readings can be large or run the other way. A potency beside an inconclusive call is a rough fit, not a confirmed value.

Test: qHTS Multiplex Assay to Identify Dual Action Probes in a Cell Model of Huntington: Aggregate Formation (GFP); further: nearly all actives have a fitted effect of over 60% in size
Settings: PC12 HttQ103-GFP aggregates, Acumen cytometry, 40 h; activity change, negative = inhibition: at 46.1 µM (top of the series) unless noted
How it was run: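 PC12 cells with ecdysone-inducible HTT exon1 Q103-GFP, induced by 100 nM tebufenozide, given compounds in a concentration series. GFP aggregates (1–25 um, 6 SD above background) counted in lysates by laser-scanning cytometry, 488 nm excitation.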
On the % scale 0 is the no-effect control and ±100 the full control effect; potency means the concentration at half of the fitted maximal effect.

Row | Structure (SMILES) | activity change, negative = inhibition | Potency
1 | Cc1ccc(NC(=O)CN(C)C(=O)COc2cccc3cccnc23)cc1 | inactive: -1.98% | –
2 | NNc1ncnc2c1cnn2-c1ccccc1 | – | active: 22.4 µM
3 | CC(=O)Nc1cccc(/C(C)=N/NC(=O)c2ccc(O)cc2)c1 | – | inconclusive: 17.8 µM [activator, partial curve]
4 | Cc1cccc(C)c1OCC(O)Cn1c2ccccc2c2ccccc21 (stereo not drawn) | – | inconclusive: 35.5 µM [inhibitor, single point]
5 | CCOC(=O)c1cc(-c2csc(N/N=C/c3ccccc3Cl)n2)on1 | inactive: 10.7% [at 9.22 µM] | –
6 | O=C(Nc1nc2c(s1)CN(Cc1ccccc1)CC2)c1cccc(S(=O)(=O)N2CCc3ccccc32)c1 | inactive: -15.3% | –
7 | Cc1ccc(N=C2NC(=O)/C(=C/C=C/c3ccco3)S2)cc1C | – | inconclusive: 31.6 µM [activator, single point]
8 | COc1cccc(CN2C(=O)C3(C(C#N)=C(N)OC4=C3C(=O)CCC4)c3ccccc32)c1 (stereo not drawn) | – | inconclusive: 7.94 µM [activator, partial curve, poor fit]
9 | Cc1cc(C)c(NC(=O)c2cnn(C)c2)c(C)c1 | inactive: 13.2% | –
10 | C#CCOCCOCCOCCNc1nc(N2CCN(C(=O)[C@H](C)n3cc(CCCN=C(N)N)nn3)CC2)nc(N2CCN(C(=O)[C@H](CCCCN)n3cc(CCCC)nn3)CC2)n1 | – | inconclusive: 31.6 µM [activator, single point]
11 | CCCCn1c(=O)c(CCC(=O)O)nc2ccccc21 | – | inconclusive: 17.8 µM [activator, single point]
12 | O=C(c1ccc(OCCN2CCCCC2)cc1)c1c(-c2ccc(O)cc2)sc2cc(O)ccc12 | – | inconclusive: 35.5 µM [inhibitor, single point]
13 | Cc1cc(Nc2ccc(F)cc2C)n2nc(C)nc2n1 | – | inconclusive: 28.2 µM [inhibitor, partial curve, poor fit]
14 | O=C1c2ccccc2-c2n[nH]c3cccc1c23 | inactive: -8.23% | –
15 | CCOc1ccc(-n2cc(C(=O)Nc3ccc(Cl)cn3)c3cc(OC)c(OC)cc3c2=O)cc1 | – | inconclusive: 11.2 µM [activator, partial curve]
16 | CSC1=C(C#N)C(=O)NC(c2ccccc2O)S1 (stereo not drawn) | inactive: -20.2% [at 9.22 µM] | –
17 | COC(=O)c1c(SCC(=O)Nc2ccc(C)c(C)c2)nc(=O)[nH]c1C | inactive: 19.3% [at 9.22 µM] | –
18 | Cc1ccc(C(=O)Nc2ccccc2N2CCN(C(=O)C(C)C)CC2)cc1C | – | inconclusive: 35.5 µM [inhibitor, single point]
19 | O=C(c1ccc(C#CC2(O)CCCCC2)cc1)N1CCN(Cc2ccccc2)CC1 | – | inconclusive: 35.5 µM [inhibitor, single point]
20 | O=C(O)CCn1c(=O)sc2ccccc21 | – | inconclusive: 35.5 µM [inhibitor, single point]
21 | CN(C)c1cccc(C(=O)NNC(=O)NC2CCCCC2)c1 | – | inconclusive: 3.16 µM [inhibitor, single point]
22 | CN(C(=O)/C(N=Nc1cccc(C(F)(F)F)c1)=C(\O)C(F)(F)F)c1ccccc1 | – | inconclusive: 17.8 µM [inhibitor, single point]

Grouped by structure, the entries above containing a Cl atom.
Row | Structure (SMILES) | activity change, negative = inhibition | Potency
5 | CCOC(=O)c1cc(-c2csc(N/N=C/c3ccccc3Cl)n2)on1 | inactive: 10.7% [at 9.22 µM] | –
15 | CCOc1ccc(-n2cc(C(=O)Nc3ccc(Cl)cn3)c3cc(OC)c(OC)cc3c2=O)cc1 | – | inconclusive: 11.2 µM [activator, partial curve]

(more compounds)

Row | Structure (SMILES) | activity change, negative = inhibition | Potency
23 | CCOC(=O)c1sc2nc(-c3ccco3)c3c(c2c1N)CC(C)(C)OC3 | inactive: 30.6% | –
24 | CCc1cc(=O)oc2cc(OCC(=O)O)c(Cl)cc12 | – | inconclusive: 5.62 µM [inhibitor, single point]
25 | CCN=C1SC(C(=O)Nc2cccc(C)c2)CC(=O)N1CC (stereo not drawn) | – | inconclusive: 1.26 µM [inhibitor, partial curve]
26 | O=C(Nc1ccc(Cl)cc1)N1CCN(c2ccc3nnc(-c4ccc(F)cc4)n3n2)CC1 | – | active: 22.4 µM
27 | Cc1ccc(C(=O)NNC(=S)NC(=O)c2ccc(Cl)cc2)cc1 | – | inconclusive: 35.5 µM [inhibitor, single point]
28 | Cc1cccc(-n2c(O)c(/C=N/NC(=O)c3ccccc3Cl)c3ccccc3c2=O)n1 | – | inconclusive: 25.1 µM [inhibitor, single point]
29 | C=CCN1C(=O)C2(/C(=C(\O)c3ccc4c(c3)OCCO4)C(=O)C(=O)N2CCCOC)c2ccccc21 (stereo not drawn) | inactive: -2.8% | –
30 | Cc1ccc(C)c(S(=O)(=O)N=Nc2c(O)[nH]c3ccccc23)c1 | – | inconclusive: 7.94 µM [activator, partial curve]
31 | COc1ccc(/C=N/NC(=O)c2ccc(COc3ccccc3Cl)o2)c(OC)c1C | – | inconclusive: 20 µM [inhibitor, single point]
32 | CC(C)N1CCN(C2CSCCSC2)CC1CCO (stereo not drawn) | inactive: -10.9% [at 9.22 µM] | –
33 | Cn1cccc1CC(=O)N/N=C/c1ccc(Cl)c([N+](=O)[O-])c1 | inactive: 6.64% [at 9.22 µM] | –
34 | COC(=O)[C@@]1(Cc2ccc(OC)cc2)[C@H]2c3cc(C(=O)N(C)C)n(Cc4ccc(OC(F)(F)F)cc4)c3C[C@H]2CN1C(=O)c1ccccc1 | – | inconclusive: 35.5 µM [inhibitor, single point]
35 | COc1cc2c(cc1NC(=O)/C=C/c1cc(OC)c(OC)c(OC)c1)oc1ccccc12 | – | inconclusive: 10 µM [activator, single point]
36 | CC(=O)OCC(=O)N1CCN(c2ccc([N+](=O)[O-])cc2)CC1 | inactive: 4.95% | –
37 | COc1ccccc1NS(=O)(=O)c1ccc(NC(C)=O)cc1 | – | inconclusive: 0.447 µM [inhibitor, full curve]
38 | O=[N+]([O-])c1cc(O)c2ncccc2c1 | – | inconclusive: 4.47 µM [inhibitor, full curve]
39 | Cn1cccc1C(=O)OCc1csc(-c2ccccc2)n1 | inactive: 23.1% | –
40 | COc1ccc(-n2c(COc3ccc(Cl)cc3)nnc2SCc2ccc(C#N)cc2)cc1 | – | inconclusive: 35.5 µM [inhibitor, single point]
41 | CN(C)c1ccc(-c2ccncc2)cc1 | inactive: -5.06% | –
42 | O=C(NC(=S)Nc1cccc(Cl)c1N1CCCC1)c1ccc(-c2cccc([N+](=O)[O-])c2)o1 | – | inconclusive: 6.31 µM [inhibitor, partial curve]
43 | COc1ccccc1/C=C/C=N/n1c(-c2cc(-c3ccccc3)n[nH]2)n[nH]c1=S | – | inconclusive: 0.708 µM [activator, partial curve]
